# Library screening results

By UniProt entry, the sequences of proteins in these tests, tags left out.
UniProt E9BF75, entry or part of it: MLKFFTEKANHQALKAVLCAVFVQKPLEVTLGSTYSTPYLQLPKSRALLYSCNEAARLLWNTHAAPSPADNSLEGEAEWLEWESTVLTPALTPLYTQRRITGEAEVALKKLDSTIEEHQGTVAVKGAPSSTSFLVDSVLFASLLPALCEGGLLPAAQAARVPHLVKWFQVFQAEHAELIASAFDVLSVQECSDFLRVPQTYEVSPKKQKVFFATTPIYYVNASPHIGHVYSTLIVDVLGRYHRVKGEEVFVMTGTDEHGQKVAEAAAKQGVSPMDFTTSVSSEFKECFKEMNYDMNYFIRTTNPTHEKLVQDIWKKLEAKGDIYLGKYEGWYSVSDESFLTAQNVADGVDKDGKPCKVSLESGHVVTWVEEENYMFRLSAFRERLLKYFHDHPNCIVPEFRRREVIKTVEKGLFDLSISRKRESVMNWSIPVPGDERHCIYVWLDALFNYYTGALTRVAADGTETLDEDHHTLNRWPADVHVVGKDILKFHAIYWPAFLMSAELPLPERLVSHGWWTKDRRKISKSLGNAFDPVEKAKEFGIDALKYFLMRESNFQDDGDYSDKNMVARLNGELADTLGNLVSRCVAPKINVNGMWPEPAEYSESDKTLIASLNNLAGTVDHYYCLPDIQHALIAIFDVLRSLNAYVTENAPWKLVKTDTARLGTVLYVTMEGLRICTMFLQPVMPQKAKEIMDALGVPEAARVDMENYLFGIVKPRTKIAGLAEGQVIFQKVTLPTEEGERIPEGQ

A: 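Methionyl-tRNA synthetase (putative), Leishmania donovani (UniProt E9BF75). Primary screen of methionyl-tRNA synthetase; the read-out is not stated. The test concentration is not given. The values are filed as inhibition. About 68,000 compounds were tested under these conditions; 0.035% (about 24) showed 50% or more at least once.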
B: 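Assay on Mycobacterium tuberculosis, filed only as a heat shock assay from Cornell; the read-out is not stated. The concentration is filed as 10 mM, unlikely as a test dose, so the dose is not known. Higher reads as stronger inhibition (inferred: compounds with an IC50 in retests scored well above the rest). About 69,000 compounds were tested under these conditions; 1.4% (about 930) showed 50% or more at least once.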

Results are percentages, as filed.
How 0% and 100% were set is not recorded. Most values in the screen are low, and negative values occur.
This is an unselected part of the compounds tested.
A dash means the value is not listed here; it may have been measured.

SMILES,A,B
CCOCCCNC(=O)CCSCc1csc(C)n1,7.94,7.501
CC(NS(C)(=O)=O)C(=O)N1CCCN(Cc2cscn2)CC1 (stereo unspecified),15.26,-1.685
CCOCC1CN(Cc2ccoc2)Cc2cn(CC3CC3)nc21 (stereo unspecified),7.299,-8.712
CCOC(=O)[C@]12CCCN(Cc3cccs3)C[C@H]1CN(CCOC)C2,11.54,-
COc1ccc(-c2cc3nn(CC(N)=O)c(=O)n3c(C)n2)cc1,12.74,28.25
CN(C)CCOCC1CN(Cc2ccc(F)cc2)Cc2nnn(C)c21.O=C(O)C(F)(F)F.O=C(O)C(F)(F)F (stereo unspecified),-,-39.69
CN(C)S(=O)(=O)N1C[C@@H](OCc2cccnc2)[C@H]2OCCC[C@H]21,4.575,-
Cn1ncc(N2CCC(CNC3CC(c4ccccc4)C3)CC2)cc1=O (stereo unspecified),10.94,-15.59
CC(C)Cc1cn(C2CCN(C(C)CCn3cccn3)CC2)nn1 (stereo unspecified),18.21,-25.46
CCCS(=O)(=O)CCSc1cccc(C#N)c1,8.122,-12.04
CC(=O)N1CCC(NC2(Cc3cc(CC(C)C)on3)COC2)CC1,7.492,-42.65
COc1cccc(F)c1C(C)NC(=O)NCc1ccnc(C)n1 (stereo unspecified),1.389,-14.96
C=C(Cl)CN1CCC(C(=O)c2cc(F)ccc2F)CC1,9.184,6.855
COCC(=O)N1Cc2nccn2CC(CN(C)Cc2cccnc2)C1 (stereo unspecified),18.73,2.888
COC(=O)C(NC(=O)CCOC(C)C)c1cc(F)ccc1F (stereo unspecified),7.955,1.18
Cc1ncsc1C(=O)NC1CCN(CC(N)=O)CC1,18.29,-6.684
CCOC(=O)C1(O)CCN(C(=O)Nc2cccc(CC)c2)CC1,15.54,-3.964
Cc1nc(CC(=O)N(CCN2CCOCC2)Cc2ccco2)c(C)s1,18.73,-19.77
Cc1ccc(S(=O)(=O)N2CCOc3ccccc32)cc1C(N)=O,3.067,13.57
O=C(C1CCOCC1)N1CCc2onc(COc3cccnc3)c2C1,2.985,-
[H][C@@]12C[C@H](C(=O)N3CCOCC3)[C@@]([H])(CN(S(=O)(=O)CC(C)C)C1)O2,-,-15.05
CO[C@H]1COCCN(C(=O)c2ccno2)C1,13.9,-0.07186
CCC(O)Cn1nc(-c2ccc(C(=O)O)cc2)cc1-c1ccc(F)cc1 (stereo unspecified),12.21,19.64
CN(c1ncccc1CNC(=O)c1csnn1)C1CCCCC1,3.237,-17.72
CC1CN(Cc2cc(C#N)ccc2F)CCN1Cc1nccn1C (stereo unspecified),8.571,28.91
CCOCC1CN(c2ccc(C)nn2)Cc2cnn(CC)c21.O=C(O)C(F)(F)F.O=C(O)C(F)(F)F (stereo unspecified),-,34.67
O=S(=O)(N1CCOCC1)N1CCOC(CCc2ccccc2)C1 (stereo unspecified),7.945,-17.75
CC(C)c1nsc(NC2CCOC3(CCCC3)C2)n1 (stereo unspecified),13.14,-1.415
CN1CCC[C@H]1c1nc(-c2cncnc2N)no1,7.119,0.3354
O=C(c1c[nH]c2ncccc12)N1CCC(COc2ccccc2)CC1,2.465,19.66
CN1CCC(Oc2ccc(NC(=O)c3ccccc3)cc2)CC1,14.72,-3.388
COCC1CN(C(=O)c2cccn2C)Cc2nccn2C1 (stereo unspecified),14.29,10.11
Cc1nn(CN(CC2CCOC2)C2CC2)c(=O)c2ccccc12 (stereo unspecified),8.075,-31.89
Cc1noc(C)c1CN1CCc2c(CNc3nccs3)n[nH]c2C1.O=C(O)C(F)(F)F,-,8.041
Cc1cc(NC(=O)CN(CC(C)O)c2ccccc2)on1 (stereo unspecified),16.67,6.266
Cc1cc(C)c(CNC(=O)N2CCN(c3cnccn3)CC2)c(=O)[nH]1,15.31,-27.01
CC1CCC(O)(CN2CCN(CCNC(=O)C3CCC3)CC2)CC1 (stereo unspecified),9.42,-12.19
CO[C@H]1CN(CC2CC2)[C@@H]2CCCO[C@H]12,8.798,-
CN1C(=O)CC(c2cnn(C)c2)C12CCN(C(=O)c1ccnnc1)CC2 (stereo unspecified),6,-34.02
O=S(=O)(CC1CCOCC1)NCc1ncc(-c2ccccc2)o1,6.354,-4.576
CCN1CCC(CNC(=O)Nc2cnn(CC(N)=O)c2)C1 (stereo unspecified),5.852,0.1794
O=C(CN1CCc2cncnc2C1)NC(C1CC1)C1CC1,12.71,31.47
COc1ccnc(N2CCN(CC(=O)N3CCOC(C)C3)CC2)n1 (stereo unspecified),17.14,-15.25
Cc1cc(C(=O)NC2CCN(c3ncccc3C#N)CC2)on1,14.29,-14.66
COc1ccc2c(c1)OCC(CNC(=O)c1cc(C(C)C)on1)C2 (stereo unspecified),14.37,28.03
CCCNCc1cn(C)nc1-c1cccnc1.Cl,-,-1.746
O=C(O)C(F)(F)F.O=C(c1cnoc1)N1CCC[C@]2(C[C@@H](Oc3ccccn3)CO2)C1,-,-19.73
CCn1ncc(Cn2cc(Cl)c(N)n2)c1C,11.28,-20.68
Cc1nc(C2CCCN2C(=O)CNS(C)(=O)=O)no1 (stereo unspecified),16.59,-2.883
CCC[C@H]1CN(c2cncc(C(=O)N3CCCCC3)n2)C[C@@H]1N(C)C,10.92,-14.05
O=C(Cc1cccnc1)N1CCCC2(CCN(CC3CCOCC3)C2)C1 (stereo unspecified),1.25,-12.48

Measurements from “University of Dundee, Small-Polar-MMV Screening Library” (2021), ChEMBL document CHEMBL3988442.